{"sequences": {"note": "The chains behind the UniProt entries cited, without tags or fusion partners.", "UniProt P52332": "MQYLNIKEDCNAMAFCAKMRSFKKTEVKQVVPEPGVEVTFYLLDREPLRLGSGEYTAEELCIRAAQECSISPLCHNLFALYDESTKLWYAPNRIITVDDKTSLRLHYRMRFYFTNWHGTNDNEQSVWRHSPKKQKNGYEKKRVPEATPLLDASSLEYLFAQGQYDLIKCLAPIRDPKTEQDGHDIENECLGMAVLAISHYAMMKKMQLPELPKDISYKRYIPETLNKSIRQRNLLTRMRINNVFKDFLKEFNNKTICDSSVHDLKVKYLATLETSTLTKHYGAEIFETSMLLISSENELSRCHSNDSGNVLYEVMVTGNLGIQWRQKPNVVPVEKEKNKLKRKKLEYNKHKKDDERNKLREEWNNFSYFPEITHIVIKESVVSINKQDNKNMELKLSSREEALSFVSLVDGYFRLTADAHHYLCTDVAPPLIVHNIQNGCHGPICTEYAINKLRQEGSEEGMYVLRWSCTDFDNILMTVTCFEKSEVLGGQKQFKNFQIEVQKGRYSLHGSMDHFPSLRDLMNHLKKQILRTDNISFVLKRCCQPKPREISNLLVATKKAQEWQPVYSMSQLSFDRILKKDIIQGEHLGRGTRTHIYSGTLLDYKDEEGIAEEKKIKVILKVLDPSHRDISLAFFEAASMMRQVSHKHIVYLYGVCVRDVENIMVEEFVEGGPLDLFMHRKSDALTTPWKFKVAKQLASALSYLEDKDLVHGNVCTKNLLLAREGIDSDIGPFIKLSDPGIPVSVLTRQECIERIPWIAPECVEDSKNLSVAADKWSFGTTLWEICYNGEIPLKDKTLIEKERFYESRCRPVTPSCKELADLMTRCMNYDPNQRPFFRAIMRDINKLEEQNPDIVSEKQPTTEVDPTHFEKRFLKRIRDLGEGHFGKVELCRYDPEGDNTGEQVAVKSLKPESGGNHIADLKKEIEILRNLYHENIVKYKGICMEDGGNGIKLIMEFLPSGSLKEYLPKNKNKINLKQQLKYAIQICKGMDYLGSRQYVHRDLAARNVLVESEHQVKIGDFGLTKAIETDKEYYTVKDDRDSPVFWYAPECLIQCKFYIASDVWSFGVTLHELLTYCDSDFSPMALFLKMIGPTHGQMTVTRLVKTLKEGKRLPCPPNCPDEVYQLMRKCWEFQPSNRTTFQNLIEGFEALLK"}, "source": "paper PMC12514125", "target": "T1, Lipin3 (mouse, endogenous) (mouse (endogenous in WT mouse tissue and primary hepatocytes)) (UniProt Q99PI4)", "T1 sequence": "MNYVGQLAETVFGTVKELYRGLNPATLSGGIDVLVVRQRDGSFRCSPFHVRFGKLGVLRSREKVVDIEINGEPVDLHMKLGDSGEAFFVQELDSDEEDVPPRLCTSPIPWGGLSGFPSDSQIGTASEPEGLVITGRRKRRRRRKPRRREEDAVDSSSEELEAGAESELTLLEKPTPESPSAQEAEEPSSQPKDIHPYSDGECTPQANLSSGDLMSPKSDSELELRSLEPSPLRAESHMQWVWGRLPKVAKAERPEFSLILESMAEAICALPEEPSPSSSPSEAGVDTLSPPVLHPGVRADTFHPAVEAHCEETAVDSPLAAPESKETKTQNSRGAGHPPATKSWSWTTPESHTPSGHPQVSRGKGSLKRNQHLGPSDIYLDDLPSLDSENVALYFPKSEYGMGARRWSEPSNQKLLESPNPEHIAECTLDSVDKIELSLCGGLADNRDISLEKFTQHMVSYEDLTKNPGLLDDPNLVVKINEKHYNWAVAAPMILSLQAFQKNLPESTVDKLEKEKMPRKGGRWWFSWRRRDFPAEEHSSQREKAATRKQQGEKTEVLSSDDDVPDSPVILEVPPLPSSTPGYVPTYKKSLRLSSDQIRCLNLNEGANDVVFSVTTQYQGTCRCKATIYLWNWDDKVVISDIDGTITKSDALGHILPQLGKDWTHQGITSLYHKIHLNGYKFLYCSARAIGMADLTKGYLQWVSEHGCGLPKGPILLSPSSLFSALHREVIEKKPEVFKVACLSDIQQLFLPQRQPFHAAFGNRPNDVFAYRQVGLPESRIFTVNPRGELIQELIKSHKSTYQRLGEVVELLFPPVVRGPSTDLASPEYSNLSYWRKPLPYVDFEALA", "experiment": "co-IP; mouse primary hepatocytes, endogenous proteins; immunoprecipitates washed, Western blot", "note": "These are yes or no findings as the source states them, for the method shown. Binding seen in cells or lysates may run through a third protein. Some results given as binding are weak or reduced against the parent protein; the word gives no strength."}
{"substance": "JAK1 (mouse, endogenous) (from UniProt P52332 1-1153)", "values": [{"measurement": "binding", "result": "binds"}]}
